Laboratory results taken from publication PMC11467045.
Results are given in words; binding and its absence hold for the method and conditions named. In cells and extracts the contact can be indirect. Here binding means that the protein was enriched with, or labelled near, the bait; the list need not be complete.

Chains of the proteins cited; added tags and fusions are not shown. Lines headed by an entry give the natural chain unless they say otherwise; changes in a name come on top.
UniProt Q8IVV7: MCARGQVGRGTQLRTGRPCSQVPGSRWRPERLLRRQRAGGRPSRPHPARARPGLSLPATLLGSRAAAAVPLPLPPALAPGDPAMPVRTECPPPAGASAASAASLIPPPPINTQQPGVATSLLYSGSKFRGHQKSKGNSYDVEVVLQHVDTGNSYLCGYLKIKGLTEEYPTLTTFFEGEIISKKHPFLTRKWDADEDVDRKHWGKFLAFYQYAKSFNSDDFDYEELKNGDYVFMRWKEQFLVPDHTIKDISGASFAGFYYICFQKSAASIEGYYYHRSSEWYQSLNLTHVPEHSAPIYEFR
UniProt Q8IUR7: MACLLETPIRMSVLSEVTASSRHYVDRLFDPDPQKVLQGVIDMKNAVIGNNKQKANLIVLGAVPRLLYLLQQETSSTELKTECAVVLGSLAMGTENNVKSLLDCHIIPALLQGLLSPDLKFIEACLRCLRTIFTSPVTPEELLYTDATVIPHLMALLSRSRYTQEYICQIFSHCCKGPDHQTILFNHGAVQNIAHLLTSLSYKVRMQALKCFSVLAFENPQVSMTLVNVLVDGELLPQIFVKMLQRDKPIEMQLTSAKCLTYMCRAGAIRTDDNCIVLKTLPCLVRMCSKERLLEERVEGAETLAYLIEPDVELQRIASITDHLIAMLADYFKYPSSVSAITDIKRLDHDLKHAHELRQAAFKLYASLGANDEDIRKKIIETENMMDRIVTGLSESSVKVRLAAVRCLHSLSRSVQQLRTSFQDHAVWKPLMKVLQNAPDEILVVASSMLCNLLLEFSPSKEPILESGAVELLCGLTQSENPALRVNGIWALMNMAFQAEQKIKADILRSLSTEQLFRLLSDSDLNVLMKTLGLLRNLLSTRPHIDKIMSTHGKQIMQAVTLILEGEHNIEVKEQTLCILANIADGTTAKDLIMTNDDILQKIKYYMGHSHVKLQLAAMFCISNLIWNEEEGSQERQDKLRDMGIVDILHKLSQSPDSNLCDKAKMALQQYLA
UniProt O43464: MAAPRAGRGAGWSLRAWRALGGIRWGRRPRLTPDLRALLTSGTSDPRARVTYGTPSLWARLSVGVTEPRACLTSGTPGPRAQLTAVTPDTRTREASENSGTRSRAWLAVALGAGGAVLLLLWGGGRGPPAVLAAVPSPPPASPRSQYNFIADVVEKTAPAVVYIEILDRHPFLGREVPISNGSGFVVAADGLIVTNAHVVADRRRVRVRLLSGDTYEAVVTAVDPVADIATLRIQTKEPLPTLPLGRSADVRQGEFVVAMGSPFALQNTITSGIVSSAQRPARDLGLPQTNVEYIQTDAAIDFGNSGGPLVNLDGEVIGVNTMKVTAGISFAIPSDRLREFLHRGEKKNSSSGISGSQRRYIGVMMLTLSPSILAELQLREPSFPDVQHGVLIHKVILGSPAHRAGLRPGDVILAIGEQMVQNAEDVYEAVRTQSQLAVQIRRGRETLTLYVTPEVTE
UniProt Q96E35: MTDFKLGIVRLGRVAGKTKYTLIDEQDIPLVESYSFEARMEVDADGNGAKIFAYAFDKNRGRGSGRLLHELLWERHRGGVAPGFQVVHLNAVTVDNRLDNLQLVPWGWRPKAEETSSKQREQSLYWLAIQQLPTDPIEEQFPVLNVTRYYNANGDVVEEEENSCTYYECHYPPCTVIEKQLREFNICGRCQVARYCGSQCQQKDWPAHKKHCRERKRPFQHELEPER
UniProt Q9H2Y7: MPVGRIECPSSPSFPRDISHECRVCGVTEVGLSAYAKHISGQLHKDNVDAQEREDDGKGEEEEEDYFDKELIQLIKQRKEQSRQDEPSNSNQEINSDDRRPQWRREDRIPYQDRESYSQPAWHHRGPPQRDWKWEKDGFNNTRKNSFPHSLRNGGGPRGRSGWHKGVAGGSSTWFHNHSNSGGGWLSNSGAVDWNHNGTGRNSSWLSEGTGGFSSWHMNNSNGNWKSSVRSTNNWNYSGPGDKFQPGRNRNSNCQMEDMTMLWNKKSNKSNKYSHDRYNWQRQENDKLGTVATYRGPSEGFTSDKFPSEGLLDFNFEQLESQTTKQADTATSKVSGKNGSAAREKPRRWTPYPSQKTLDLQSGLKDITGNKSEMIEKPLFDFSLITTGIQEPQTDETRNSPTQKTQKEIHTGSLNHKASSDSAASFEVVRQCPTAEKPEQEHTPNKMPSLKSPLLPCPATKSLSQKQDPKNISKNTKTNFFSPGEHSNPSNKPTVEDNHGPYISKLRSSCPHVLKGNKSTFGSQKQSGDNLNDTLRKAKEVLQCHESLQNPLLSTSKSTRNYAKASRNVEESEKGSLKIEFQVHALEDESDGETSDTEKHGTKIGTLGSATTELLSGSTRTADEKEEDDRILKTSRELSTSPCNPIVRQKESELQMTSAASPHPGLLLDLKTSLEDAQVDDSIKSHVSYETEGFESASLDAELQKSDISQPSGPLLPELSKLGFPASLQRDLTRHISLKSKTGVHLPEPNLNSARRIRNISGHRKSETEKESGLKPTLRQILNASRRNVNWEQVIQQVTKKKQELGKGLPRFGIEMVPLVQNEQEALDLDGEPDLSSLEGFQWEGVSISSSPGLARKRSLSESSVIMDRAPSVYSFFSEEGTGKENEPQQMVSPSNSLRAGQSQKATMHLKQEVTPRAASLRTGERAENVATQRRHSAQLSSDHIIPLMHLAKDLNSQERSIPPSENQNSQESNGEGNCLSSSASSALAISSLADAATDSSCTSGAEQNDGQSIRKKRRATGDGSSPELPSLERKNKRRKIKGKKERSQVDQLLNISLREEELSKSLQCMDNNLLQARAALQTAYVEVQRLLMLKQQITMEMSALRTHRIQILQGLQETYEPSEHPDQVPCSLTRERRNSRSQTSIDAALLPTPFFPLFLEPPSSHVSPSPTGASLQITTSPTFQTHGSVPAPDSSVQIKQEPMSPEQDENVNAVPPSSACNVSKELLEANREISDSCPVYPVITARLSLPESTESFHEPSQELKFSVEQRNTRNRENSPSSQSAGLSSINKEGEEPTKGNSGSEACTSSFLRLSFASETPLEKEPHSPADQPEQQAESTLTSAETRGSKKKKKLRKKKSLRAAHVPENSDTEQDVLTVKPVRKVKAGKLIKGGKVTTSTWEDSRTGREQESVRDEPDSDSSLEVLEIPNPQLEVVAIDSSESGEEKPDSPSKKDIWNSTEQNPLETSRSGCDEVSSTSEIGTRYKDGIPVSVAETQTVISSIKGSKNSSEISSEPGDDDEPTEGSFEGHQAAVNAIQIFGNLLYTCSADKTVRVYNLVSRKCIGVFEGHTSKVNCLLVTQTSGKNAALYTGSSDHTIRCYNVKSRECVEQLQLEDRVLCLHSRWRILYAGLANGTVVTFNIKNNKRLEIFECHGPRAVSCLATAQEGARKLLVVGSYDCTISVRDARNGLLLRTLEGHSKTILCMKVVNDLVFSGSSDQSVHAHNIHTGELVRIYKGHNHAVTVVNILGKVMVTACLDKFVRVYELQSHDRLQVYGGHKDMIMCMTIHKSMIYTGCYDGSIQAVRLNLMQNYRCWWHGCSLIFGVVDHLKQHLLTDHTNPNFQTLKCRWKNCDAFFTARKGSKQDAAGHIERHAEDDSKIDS

What was measured:
[1] = molecular target: BirA2-Flag-GID4 fusion protein (human) (UniProt Q8IVV7); assay: proximity labelling; BioID2: BirA2-Flag-tagged bait in Flp-In T-REx HeLa cells, tetracycline 1 μg/ml and biotin 50 μM for 24 h, with or without MG132 (5 μM); biotinylated proteins on streptavidin beads, mass spectrometry, SAINT against BirA2-Flag-EGFP, BFDR ≤ 0.01
ARMC8-BirA2-Flag (human) = ARMC8-BirA2-Flag (human) (UniProt Q8IUR7); assay: as above

| Substance | binding [1] | binding (ARMC8-BirA2-Flag (human)) |
| --- | --- | --- |
| HTRA2 (from UniProt O43464) | binds | – |
| Zinc finger MYND-type containing 19 (ZMYND19) (from UniProt Q96E35 1-227) | – | binds |
| transcription factor ZNF106 (from UniProt Q9H2Y7 1-1883) | binds | – |
